Article PMC6206076

Target: ClC-5-mVenus (human)
Assay: co-IP; HEK293T cells co-transfected with ClC-5-mVenus and barttin-mCherry; membrane proteins solubilised with ComplexioLyte 47a; cleared lysate incubated 1 h with monoclonal anti-GFP antibody, then 2 h with protein G-sepharose beads; eluted in SDS loading buffer; detected by fluorescence scan of the SDS gel; controls without antibody and with barttin-mCherry alone

B1: barttin-mCherry (protein, UniProt Q8WZ55 1-320)
chain: MADEKTFRIGFIVLGLFLLALGTFLMSHDRPQVYGTFYAMGSVMVIGGIIWSMCQCYPKITFVPADSDFQGILSPKAMGLLENGLAAEMKSPSPQPPYVRLWEEAAYDQSLPDFSHIQMKVMSYSEDHRSLLAPEMGQPKLGTSDGGEGGPGDVQAWMEAAVVIHKGSDESEGERRLTQSWPGPLACPQGPAPLASFQDDLDMDSSEGSSPNASPHDREEACSPQQEPQGCRCPLDRFQDFALIDAPTLEDEPQEGQQWEIALPNNWQRYPRTKVEEKEASDTGGEEPEKEEEDLYYGLPDGAGDLLPDKELGFEPDTQG
binding: binds

No constants are given. Whether binding was seen depends on the method and setting. Binding seen in cells or lysates may run through a third protein. Binding can be weak; no strength is given.
